Experimental data published in US20150139999A1.
Results are given in words; binding and its absence hold for the method and conditions named. Some entries that bind do so weakly or less than the wild type.

Target: B18-FL (Vaccinia virus strain Western Reserve B18 protein with a FLAG epitope at the C terminus, sec (Vaccinia virus strain Western Reserve) (UniProt P25213))
Assay: immunoprecipitation with FLAG antibody, competition with [^32P]-IFN-α2-P

B1: human IFN-ε (ligand, UniProt Q86WN2 22-208, looked up)
chain: LDLKLIIFQQRQVNQESLKLLNKLQTLSIQQCLPHRKNFLLPQKSLSPQQYQKGHTLAILHEMLQQIFSLFRANISLDGWEENHTEKFLIQLHQQLEYLEALMGLEAEKLSGTLGSDNLRLQVKMYFRRIHDYLENQDYSTCAWAIVQVEISRCLFFVFSLTEKLSKQGRPLNDMKQELTTEFRSPR
  binding: binds
